Measurements reported in PubChem BioAssay AID1259405 (NCATS, 2018)
Screen: 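Silenced genes that increase secreted GFP made by CHO cells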 (primary screen). System: Chinese hamster CHO-K1 ovary cells with stable secreted eGFP expression. Reagents: single siRNA against mouse genes, 0.8 pmol siRNA per well (2 µl of 400 nM stock). Duration: 3 days. Measured: 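Per-well intracellular GFP measured by laser scanning cytometry, plus viability from ATP luminescence, each relative to plate median of non-targeting control wells, in %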. Scale: GFP, % of control: higher = more GFP per well, higher productivity; viability (ATP), % of control: higher = more viable cells (more ATP). Active means: 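a knock-down is called active if GFP reaches 120% or more of non-targeting control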.
This is one part, drawn at random, of about 50,000 reagents tested. About 4,000 of them (8%) were called active. 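Mouse siRNA library applied to hamster cells; one well for each siRNA.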 Unmarked entries are inactive. Reagents against one gene are numbered here. Reagent sequences are not shown.

How did the screen score Or10z1 #1?
GFP, % of control: 78.2; viability (ATP), % of control: 63.1

For Or10z1 #2, what was measured?
GFP, % of control: 116; viability (ATP), % of control: 76.8

Which result is listed for Or10z1 #3?
GFP, % of control: 107; viability (ATP), % of control: 70.9

For Gpx3 #1, what was measured?
GFP, % of control: 123 (active); viability (ATP), % of control: 98.9

Which result is listed for Gpx3 #2?
GFP, % of control: 70; viability (ATP), % of control: 75.3

What is on record for Gpx3 #3?
GFP, % of control: 60.6; viability (ATP), % of control: 82.5

With Clec9a #1, how do the results read?
GFP, % of control: 81.6; viability (ATP), % of control: 69

For Clec9a #2, what does the deposit list?
GFP, % of control: 62.6; viability (ATP), % of control: 81.8

Which result is listed for Clec9a #3?
GFP, % of control: 73.2; viability (ATP), % of control: 78.2

How did the screen score Aqp6 #1?
GFP, % of control: 87.8; viability (ATP), % of control: 61.6

Which result is listed for Aqp6 #2?
GFP, % of control: 78.4; viability (ATP), % of control: 50

For Aqp6 #3, how do the results read?
GFP, % of control: 75.7; viability (ATP), % of control: 30.4

With Card10 #1, how do the results read?
GFP, % of control: 106; viability (ATP), % of control: 80.7

For Card10 #2, what does the deposit list?
GFP, % of control: 136 (active); viability (ATP), % of control: 89.8

What is on record for Prdx4 #1?
GFP, % of control: 100; viability (ATP), % of control: 55

What is on record for Prdx4 #2?
GFP, % of control: 64.5; viability (ATP), % of control: 38.4

What did the screen give for Prdx4 #3?
GFP, % of control: 73.8; viability (ATP), % of control: 72

Which result is listed for Zik1 #1?
GFP, % of control: 47.4; viability (ATP), % of control: 73.9

With Zik1 #2, how do the results read?
GFP, % of control: 61.9; viability (ATP), % of control: 85.7

For Zik1 #3, how do the results read?
GFP, % of control: 50.7; viability (ATP), % of control: 77.8

With Dhx36 #1, what does the deposit list?
GFP, % of control: 105; viability (ATP), % of control: 84.3

What is on record for Dhx36 #2?
GFP, % of control: 46.8; viability (ATP), % of control: 48.8

What did the screen give for Dhx36 #3?
GFP, % of control: 72; viability (ATP), % of control: 62.4

With Vdac2 #1, how do the results read?
GFP, % of control: 67; viability (ATP), % of control: 105

What did the screen give for Vdac2 #2?
GFP, % of control: 106; viability (ATP), % of control: 78.7

For Vdac2 #3, how do the results read?
GFP, % of control: 90.8; viability (ATP), % of control: 77.7

What did the screen give for Msrb2 #1?
GFP, % of control: 135 (active); viability (ATP), % of control: 105

With Msrb2 #2, what was measured?
GFP, % of control: 78.6; viability (ATP), % of control: 103

With Msrb2 #3, what does the deposit list?
GFP, % of control: 89.1; viability (ATP), % of control: 61.9

What did the screen give for H2-T23 #1?
GFP, % of control: 66.2; viability (ATP), % of control: 92.2

What is on record for H2-T23 #2?
GFP, % of control: 70.3; viability (ATP), % of control: 68.2

For H2-T23 #3, what does the deposit list?
GFP, % of control: 59.3; viability (ATP), % of control: 64.7

With Hnrnpf #1, what was measured?
GFP, % of control: 63.4; viability (ATP), % of control: 51.8

With Hnrnpf #2, what was measured?
GFP, % of control: 111; viability (ATP), % of control: 88.9

Which result is listed for Hnrnpf #3?
GFP, % of control: 112; viability (ATP), % of control: 85.7

Which result is listed for Rbm48 #1?
GFP, % of control: 61.7; viability (ATP), % of control: 63.1

With Rbm48 #2, how do the results read?
GFP, % of control: 98.7; viability (ATP), % of control: 96.1

What did the screen give for Rbm48 #3?
GFP, % of control: 137 (active); viability (ATP), % of control: 129

With Krt10 #1, how do the results read?
GFP, % of control: 56.2; viability (ATP), % of control: 60.3

What did the screen give for Krt10 #2?
GFP, % of control: 91.6; viability (ATP), % of control: 95.5

Copied from the entries so far for reference:
Aqp6 #2 | GFP, % of control: 78.4; viability (ATP), % of control: 50
Aqp6 #3 | GFP, % of control: 75.7; viability (ATP), % of control: 30.4
Card10 #1 | GFP, % of control: 106; viability (ATP), % of control: 80.7
Card10 #2 | GFP, % of control: 136 (active); viability (ATP), % of control: 89.8
